The record followed here is US6451982 (SCHERING, dated 2002).

Test [1] concerns the target T1, recombinant human interleukin-5 (human, UniProt P05113 20-134).
T1 sequence (looked up): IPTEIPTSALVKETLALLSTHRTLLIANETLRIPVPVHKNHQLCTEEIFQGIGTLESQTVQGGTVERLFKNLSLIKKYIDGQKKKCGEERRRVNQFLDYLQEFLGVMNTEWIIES
In words: affinity chromatography on immobilized human IL-5.

Test [2] concerns the target T1, recombinant human interleukin-5. Nature of the test: captured antibody on plate, 125I-IL-5 binding, Scatchard analysis. The procedure: To determine whether the humanized antibodies retained the ability to specifically bind to human IL-5, apparent dissociation constants of antibody/antigen complexes were measured. This was done by coating enzyme immunoassay plates with mouse anti-human IgG_4-Fc (5 µg per ml, 100 ill per well) in 50 mM bicarbonate buffer, pH 9.5. The plates were then blocked at room temperature for 90 minutes with BLOTTO, washed 3 times, and incubated at 37° C. for 2 hours with one of the humanized antibodies, either purified (100 µl per well with a final concentration of 0.05 µg per ml) or in the form of conditioned medium (100 µl per well).
After the plates were washed 3 times, a dilution series of ^125I-labeled human IL-5 at concentrations between 4,000 pM and 2 pM was applied to the wells in each plate in final volumes of 100 µl. All test wells were run in triplicate. Background binding was determined by using a 1000-fold molar excess of unlablled human IL-5 in control wells. The reactions were allowed to equilibrate at room temperature for 2 hours, at which time the wells were aspirated and washed 5 times with TBST. The wells were then separated and counted in a Pharmacia LKB γ-counter. All nonspecific binding controls were run in duplicate. The values obtained for bound human IL-5 were subjected to Scatchard analysis (using RADLIG software) to obtain dissociation constant (kd) values.

Results are given in words; binding and its absence hold for the method and conditions named. Some results given as binding are weak or reduced against the parent protein; the word gives no strength.

B1: humanized antibody CMX5-1 (antibody, V domains shown)
VH: QVKLVQAGGGVVQPGRSLRLSCIVSGLSLTSNSVNWIRQAPGKGLEWVALIWSNGDTDYNSAIKSRFTISRDNSKSTLYMQMNSLRTEDTAVYFCAREYYGYFDYWGQGVLVTVSS
VL: DIQMTQSPSSLSVSVGDRVTITCLASEGISSYLAWYQQKPGLAPLLLIYGANSLQTGVPSRFSGSGSATDFTLTISSLQPEDIATYYCQQSYKFPNTFGQGTKVDVKR
notes: VH HIL maximal, VL LAY maximal; also called CMX1; antibody from clone CJA25
On to B1, for which the binding result in test [1] and in test [2] was “binds” in each case.
